B1: CALCOCO1 (protein, UniProt Q9P1Z2 1-691)
chain: MEESPLSRAPSRGGVNFLNVARTYIPNTKVECHYTLPPGTMPSASDWIGIFKVEAACVRDYHTFVWSSVPESTTDGSPIHTSVQFQASYLPKPGAQLYQFRYVNRQGQVCGQSPPFQFREPRPMDELVTLEEADGGSDILLVVPKATVLQNQLDESQQERNDLMQLKLQLEGQVTELRSRVQELERALATARQEHTELMEQYKGISRSHGEITEERDILSRQQGDHVARILELEDDIQTISEKVLTKEVELDRLRDTVKALTREQEKLLGQLKEVQADKEQSEAELQVAQQENHHLNLDLKEAKSWQEEQSAQAQRLKDKVAQMKDTLGQAQQRVAELEPLKEQLRGAQELAASSQQKATLLGEELASAAAARDRTIAELHRSRLEVAEVNGRLAELGLHLKEEKCQWSKERAGLLQSVEAEKDKILKLSAEILRLEKAVQEERTQNQVFKTELAREKDSSLVQLSESKRELTELRSALRVLQKEKEQLQEEKQELLEYMRKLEARLEKVADEKWNEDATTEDEEAAVGLSCPAALTDSEDESPEDMRLPPYGLCERGDPGSSPAGPREASPLVVISQPAPISPHLSGPAEDSSSDSEAEDEKSVLMAAVQSGGEEANLLLPELGSAFYDMASGFTVGTLSETSTGGPATPTWKECPICKERFPAESDKDALEDHMDGHFFFSTQDPFTFE
B2: CALCOCO2 (protein, UniProt Q13137 1-446)
chain: MEETIKDPPTSAVLLDHCHFSQVIFNSVEKFYIPGGDVTCHYTFTQHFIPRRKDWIGIFRVGWKTTREYYTFMWVTLPIDLNNKSAKQQEVQFKAYYLPKDDEYYQFCYVDEDGVVRGASIPFQFRPENEEDILVVTTQGEVEEIEQHNKELCKENQELKDSCISLQKQNSDMQAELQKKQEELETLQSINKKLELKVKEQKDYWETELLQLKEQNQKMSSENEKMGIRVDQLQAQLSTQEKEMEKLVQGDQDKTEQLEQLKKENDHLFLSLTEQRKDQKKLEQTVEQMKQNETTAMKKQQELMDENFDLSKRLSENEIICNALQRQKERLEGENDLLKRENSRLLSYMGLDFNSLPYQVPTSDEGGARQNPGLAYGNPYSGIQESSSPSPLSIKKCPICKADDICDHTLEQQQMQPLCFNCPICDKIFPATEKQIFEDHVFCHSL

Amino acid sequences for entries named in this document (tags omitted). A change or cut given only in a name is not applied to a line headed by its entry. Residues count along the entry.
UniProt Q9UKK3: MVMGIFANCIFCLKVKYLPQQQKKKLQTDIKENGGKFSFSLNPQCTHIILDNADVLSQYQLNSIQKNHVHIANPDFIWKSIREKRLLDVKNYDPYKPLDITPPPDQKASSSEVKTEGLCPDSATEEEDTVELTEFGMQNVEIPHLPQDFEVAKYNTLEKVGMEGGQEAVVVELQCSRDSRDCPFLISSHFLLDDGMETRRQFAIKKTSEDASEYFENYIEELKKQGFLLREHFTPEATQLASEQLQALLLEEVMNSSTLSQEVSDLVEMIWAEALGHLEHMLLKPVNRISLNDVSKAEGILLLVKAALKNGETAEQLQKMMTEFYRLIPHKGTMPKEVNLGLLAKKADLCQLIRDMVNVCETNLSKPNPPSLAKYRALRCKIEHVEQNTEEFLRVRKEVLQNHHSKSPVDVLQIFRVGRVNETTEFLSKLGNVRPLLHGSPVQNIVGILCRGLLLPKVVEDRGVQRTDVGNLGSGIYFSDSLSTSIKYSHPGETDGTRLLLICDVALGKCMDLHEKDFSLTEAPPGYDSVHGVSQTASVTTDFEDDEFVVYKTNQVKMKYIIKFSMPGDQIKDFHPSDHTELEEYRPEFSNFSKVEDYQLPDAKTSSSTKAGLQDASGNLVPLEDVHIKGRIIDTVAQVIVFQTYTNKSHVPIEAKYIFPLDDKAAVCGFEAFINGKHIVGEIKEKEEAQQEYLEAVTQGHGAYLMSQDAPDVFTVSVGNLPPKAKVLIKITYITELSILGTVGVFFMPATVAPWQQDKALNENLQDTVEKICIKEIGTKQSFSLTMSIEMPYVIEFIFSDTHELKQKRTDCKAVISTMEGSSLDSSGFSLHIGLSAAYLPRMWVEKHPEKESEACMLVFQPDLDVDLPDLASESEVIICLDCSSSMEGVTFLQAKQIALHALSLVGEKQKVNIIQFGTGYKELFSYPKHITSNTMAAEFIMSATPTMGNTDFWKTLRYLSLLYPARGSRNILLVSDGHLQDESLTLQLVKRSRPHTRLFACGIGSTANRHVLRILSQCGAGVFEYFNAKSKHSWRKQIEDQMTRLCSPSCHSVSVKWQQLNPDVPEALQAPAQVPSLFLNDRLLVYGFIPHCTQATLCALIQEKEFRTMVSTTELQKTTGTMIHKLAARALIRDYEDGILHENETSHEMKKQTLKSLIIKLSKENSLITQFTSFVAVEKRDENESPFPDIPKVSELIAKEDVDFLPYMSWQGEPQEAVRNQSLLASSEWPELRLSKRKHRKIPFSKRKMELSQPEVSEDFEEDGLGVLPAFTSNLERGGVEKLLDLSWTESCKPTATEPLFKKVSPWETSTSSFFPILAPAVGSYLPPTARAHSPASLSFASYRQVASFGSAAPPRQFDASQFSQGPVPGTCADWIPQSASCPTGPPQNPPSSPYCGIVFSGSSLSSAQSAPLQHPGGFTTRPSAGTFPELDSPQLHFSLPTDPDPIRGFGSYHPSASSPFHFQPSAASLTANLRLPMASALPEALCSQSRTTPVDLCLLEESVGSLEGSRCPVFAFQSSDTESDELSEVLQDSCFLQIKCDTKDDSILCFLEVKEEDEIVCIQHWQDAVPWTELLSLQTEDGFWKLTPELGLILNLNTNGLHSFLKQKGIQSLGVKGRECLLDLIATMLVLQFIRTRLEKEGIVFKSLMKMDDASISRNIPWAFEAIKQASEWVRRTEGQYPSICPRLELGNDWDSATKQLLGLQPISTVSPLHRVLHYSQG
UniProt Q15388: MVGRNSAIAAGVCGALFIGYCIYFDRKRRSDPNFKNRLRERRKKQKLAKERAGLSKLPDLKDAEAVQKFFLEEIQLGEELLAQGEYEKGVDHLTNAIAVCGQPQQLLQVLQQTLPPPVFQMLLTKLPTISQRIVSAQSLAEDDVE
UniProt Q9UBR2: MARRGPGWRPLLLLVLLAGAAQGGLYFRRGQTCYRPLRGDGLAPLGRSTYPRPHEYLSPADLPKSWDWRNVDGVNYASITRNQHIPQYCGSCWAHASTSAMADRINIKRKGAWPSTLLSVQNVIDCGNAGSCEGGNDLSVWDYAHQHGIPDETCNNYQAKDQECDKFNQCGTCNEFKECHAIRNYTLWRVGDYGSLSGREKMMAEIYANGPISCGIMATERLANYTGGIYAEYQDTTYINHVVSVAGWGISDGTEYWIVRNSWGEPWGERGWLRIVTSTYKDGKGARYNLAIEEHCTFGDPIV
UniProt P40939, residues 37-763: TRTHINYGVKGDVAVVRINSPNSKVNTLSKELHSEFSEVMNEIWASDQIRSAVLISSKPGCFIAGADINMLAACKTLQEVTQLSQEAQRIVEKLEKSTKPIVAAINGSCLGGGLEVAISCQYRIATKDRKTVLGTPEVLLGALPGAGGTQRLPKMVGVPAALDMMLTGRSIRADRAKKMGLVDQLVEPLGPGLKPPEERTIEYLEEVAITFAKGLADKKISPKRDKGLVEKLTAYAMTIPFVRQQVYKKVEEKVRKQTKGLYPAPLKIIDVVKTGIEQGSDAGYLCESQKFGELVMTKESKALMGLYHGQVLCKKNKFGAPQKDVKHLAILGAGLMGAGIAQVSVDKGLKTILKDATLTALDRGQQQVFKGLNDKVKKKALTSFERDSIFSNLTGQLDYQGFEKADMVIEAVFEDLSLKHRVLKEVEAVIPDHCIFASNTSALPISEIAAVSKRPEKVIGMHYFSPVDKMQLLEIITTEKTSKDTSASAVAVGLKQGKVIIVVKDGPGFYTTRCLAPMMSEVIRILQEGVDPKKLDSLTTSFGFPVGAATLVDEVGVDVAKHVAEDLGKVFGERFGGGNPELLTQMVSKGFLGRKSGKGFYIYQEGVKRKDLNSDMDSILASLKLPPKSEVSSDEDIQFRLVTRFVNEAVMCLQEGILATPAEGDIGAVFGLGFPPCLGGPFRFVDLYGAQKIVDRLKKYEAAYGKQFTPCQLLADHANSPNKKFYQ

No constants are given. Whether binding was seen depends on the method and setting. In cells and extracts the contact can be indirect. These calls come from enrichment with a bait or labelling near it, and not all partners need be listed. For part of these data: A no says only that the protein was not detected with the bait.

The first experiment addresses myc-APEX2-p62 (UniProt Q13501). In words: proximity labelling; autophagosome content profiling: myc-APEX2-p62 in HCT116 WT, 13/3, 3/3, 5/4; biotin-phenol 30 min, 1 mM H2O2 1 min; cleared lysates treated with proteinase K, membrane-protected biotinylated proteins pulled down on streptavidin agarose, MS; BafA1 versus DMSO.
For B1, the binding entry is reported as “binds”. In the case of B2, the binding entry is recorded as “binds”.

The target in another experiment is sequestosome 1 (SQSTM1/p62), endogenous (human (endogenous in HCT116)) (UniProt Q13501). The experiment can be described thus: affinity purification with mass spectrometry; endogenous p62 immunoprecipitated with a p62 antibody (Santa Cruz sc-28359) and Protein G magnetic beads from 1 mg whole-cell lysate of HCT116 WT, 13/3 and 5/4 (and of WT without p62 overexpression), untreated/DMSO or BafA1 (100 nM, 6 h); lysis in 150 mM NaCl, 50 mM Tris-HCl pH 7.5, 5% glycerol, 1% IGPAL-CA-630, 1 mM MgCl2; normal mouse IgG as control; on-bead tryptic digest, label-free MS, n = 4.
Take PARP4 (from UniProt Q9UKK3 1-1724): the binding entry is given as “binds”. Still for that read-out and setting: as for “TOMM20 (translocase of outer mitochondrial membrane 20) (from UniProt Q15388 1-145)”, the entry is “no binding”; as for “lysosomal protease CTSZ (from UniProt Q9UBR2)”, “binds”; as for “mitochondrial hydroxyacyl-CoA dehydrogenase trifunctional multienzyme complex subunit HADHA (from UniProt P40939 37-763)”, “binds”.
